Assay results: patent US6489103
Tags and fusion partners may be left off the protein sequences shown.

Biological target: T1, HaeIII restriction endonuclease (UniProt O68584)
T1 sequence (looked up, limits assumed): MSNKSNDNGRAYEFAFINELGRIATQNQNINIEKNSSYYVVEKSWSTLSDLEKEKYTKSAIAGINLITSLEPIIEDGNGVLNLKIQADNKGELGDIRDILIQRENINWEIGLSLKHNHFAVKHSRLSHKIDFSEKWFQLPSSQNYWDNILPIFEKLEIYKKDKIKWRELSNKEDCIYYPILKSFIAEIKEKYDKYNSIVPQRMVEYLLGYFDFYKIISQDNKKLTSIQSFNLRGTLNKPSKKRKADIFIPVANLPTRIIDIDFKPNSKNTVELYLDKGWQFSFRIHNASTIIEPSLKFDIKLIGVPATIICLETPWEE
Assay: enzyme reaction in vitro
Settings: unmethylated DNA cleaved, methylated resistant; 37 C, 5 h; KM of HaeIII 6 nM mentioned without measurement; purified native protein; protein details: NEB; label: DIG and biotin on the full 1194 bp fragment

For “AGCTTGCATGCCTGCGGTACCGGCCATGCGCATGGCCTAGCGCATGCGGCCGCTAGCGCG / AATTCGCGCTAGCGGCCGCATGCGCTAGGCCATGCGCATGGCCGGTACCGCAGGCATGCA”, the “activity on this sequence” value was “active”.
